The nature of this data set: Proteomic analysis of native murine pancreata and decelled pancreatic ECM (Table 1). Details: species or system mouse.

The text below walks through data of patent US20240108662A1, “ENGINEERED CELLS FUNCTIONALIZED WITH IMMUNE CHECKPOINT MOLECULES AND USES THEREOF” (The University of North Carolina at Chapel Hill, priority 2020, published 2024).

B1: CON__Q9D646;Q9D646 (protein, UniProt Q9D646 1-392, looked up)
Keratin, type I cuticular Ha4: MSCESCLPALSCRTSCSSRPCVPPSCHGCTLPGACNIPANVGNCNWFCEGSFNGNEKETMQFLNDRLASYMEKVRQLERENAELECRIQERNQQQDPLVCPAYQAYFRTIEELQQKILCAKSENARLVVQIDNAKLASDDFRTKYQTELSMRQLVEADINSLRRILDELTLCKSDLEAQVESLREELLCLKKNHEEEVNTLRCQLGDRLNVEVDAAPTVDLNRVLNETRCQYEALVETNRREVEEWFTTQSEELNKQVVSSSEQLQSCQAEIIELRRTVNALEIELQAQHCMRNSLENTLTESEARYSSQLSQVQCLITNVESQLGEIRADLERQNQEYQVLLDVRARLECEINTYRSLLESEDCNLPCNPCATTNASGSCCGPCGSSKRCC
Take B1: the “Pancreatic ECM: Mean of log2(intensities)” value (abundance of the listed protein in decelled pancreatic ECM) came out at 30.92 a.u. For the same molecule, the “Native pancreas tissue: Mean of log2(intensities)” value (abundance of the listed protein in native murine pancreas tissue) was 21.97 a.u.

B2: P17892 (protein, UniProt P17892 1-482, looked up)
chain: MPMDVRGCLFPSVQMLLCWLVSLLLATVGGKEVCYGHLGCFSNDKPWAGMIQRPSKIFPWSPEDIDTRFLLYTNENPNNYQIISATDPATINASNFQLDRKTRFIIHGFIDKGEEGWLLDMCKKMFQVEKVNCICVDWKRGSRTEYTQASYNTRVVGAEIAFLVQVLSTEMGYSPENVHLIGHSLGSHVAGEAGRRLEGHVGRITGLDPAEPCFQGLPEEVRLDPSDAMFVDVIHTDSAPIIPYLGFGMSQKVGHLDFFPNGGKEMPGCQKNILSTIVDINGIWEGTRNFAACNHLRSYKYYASSILNPDGFLGYPCSSYEKFQHNDCFPCPEQGCPKMGHYADQFEGKTATVEQTFFLNTGDSGNFTRWRYKVSVTLSGAKKLSGYILVALYGCNGNSKQYEVFKGSLQPEARYIRDIDVDVNVGEIQKVKFLWNNKVINLFRPTMGASQITVQRGKDGKEFNFCSSNTVHEDVLQSLYPC
modifications: full-length
On to B2, for which the “Mean of log2(intensities), Pancreatic ECM” value (decelled pancreatic ECM (spin-decell protocol)) was found to be 31.11 a.u. For the same molecule, the “Mean of log2(intensities), Native pancreas tissue” value (native murine pancreas tissue) amounted to 30.09 a.u.
